Test results from paper PMC11980659.
Results are given in words; binding and its absence hold for the method and conditions named. In cells and extracts the contact can be indirect. Some results given as binding are weak or reduced against the parent protein; the word gives no strength.

The chains behind the UniProt entries cited, without tags or fusion partners.
UniProt P35222: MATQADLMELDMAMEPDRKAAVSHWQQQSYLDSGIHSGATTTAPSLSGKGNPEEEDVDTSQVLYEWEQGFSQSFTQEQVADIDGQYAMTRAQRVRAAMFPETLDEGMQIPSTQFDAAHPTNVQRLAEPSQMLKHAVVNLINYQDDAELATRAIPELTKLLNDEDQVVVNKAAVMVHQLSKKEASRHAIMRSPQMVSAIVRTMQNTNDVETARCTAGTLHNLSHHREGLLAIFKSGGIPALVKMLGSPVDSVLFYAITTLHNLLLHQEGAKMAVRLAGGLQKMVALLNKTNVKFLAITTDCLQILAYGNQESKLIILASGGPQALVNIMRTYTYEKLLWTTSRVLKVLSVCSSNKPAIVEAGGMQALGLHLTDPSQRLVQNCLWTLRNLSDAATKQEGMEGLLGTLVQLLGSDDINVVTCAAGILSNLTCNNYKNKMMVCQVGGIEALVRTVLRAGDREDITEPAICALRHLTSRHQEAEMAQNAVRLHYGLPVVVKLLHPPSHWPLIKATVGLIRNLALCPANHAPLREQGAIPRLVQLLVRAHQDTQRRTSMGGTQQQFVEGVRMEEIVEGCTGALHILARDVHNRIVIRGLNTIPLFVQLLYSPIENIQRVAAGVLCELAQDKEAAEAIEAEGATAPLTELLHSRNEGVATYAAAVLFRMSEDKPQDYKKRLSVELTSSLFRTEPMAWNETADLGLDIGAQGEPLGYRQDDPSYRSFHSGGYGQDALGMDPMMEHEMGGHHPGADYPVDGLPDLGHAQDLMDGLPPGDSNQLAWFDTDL
UniProt P23528: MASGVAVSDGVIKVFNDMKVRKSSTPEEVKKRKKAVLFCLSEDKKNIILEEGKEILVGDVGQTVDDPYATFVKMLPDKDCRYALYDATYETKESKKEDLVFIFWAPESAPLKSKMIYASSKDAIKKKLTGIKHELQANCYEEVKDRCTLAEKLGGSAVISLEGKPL

Molecular target: FLAG-β-catenin (UniProt P35222)
Assay: co-IP; exogenously expressed proteins in HEK293T cells; HA-CFL1 (WT or mutant) co-expressed with FLAG-β-catenin, immunoprecipitation by anti-FLAG antibody

binding: binds
Substance: HA-CFL1 (WT) (from UniProt P23528 1-166)
